Measured values as given in patent US20140065154A1, “TLR3 BINDING AGENTS” (INNATE PHARMA, priority 2011, published 2014).
Changes are numbered by the printed parent chain. These are yes or no findings as the source states them, for the method shown. Some entries that bind do so weakly or less than the wild type.

Sequences of proteins named here, by UniProt entry; tags and fusion partners are left off. A change or cut given only in a name is not applied to a line headed by its entry.
UniProt O15455: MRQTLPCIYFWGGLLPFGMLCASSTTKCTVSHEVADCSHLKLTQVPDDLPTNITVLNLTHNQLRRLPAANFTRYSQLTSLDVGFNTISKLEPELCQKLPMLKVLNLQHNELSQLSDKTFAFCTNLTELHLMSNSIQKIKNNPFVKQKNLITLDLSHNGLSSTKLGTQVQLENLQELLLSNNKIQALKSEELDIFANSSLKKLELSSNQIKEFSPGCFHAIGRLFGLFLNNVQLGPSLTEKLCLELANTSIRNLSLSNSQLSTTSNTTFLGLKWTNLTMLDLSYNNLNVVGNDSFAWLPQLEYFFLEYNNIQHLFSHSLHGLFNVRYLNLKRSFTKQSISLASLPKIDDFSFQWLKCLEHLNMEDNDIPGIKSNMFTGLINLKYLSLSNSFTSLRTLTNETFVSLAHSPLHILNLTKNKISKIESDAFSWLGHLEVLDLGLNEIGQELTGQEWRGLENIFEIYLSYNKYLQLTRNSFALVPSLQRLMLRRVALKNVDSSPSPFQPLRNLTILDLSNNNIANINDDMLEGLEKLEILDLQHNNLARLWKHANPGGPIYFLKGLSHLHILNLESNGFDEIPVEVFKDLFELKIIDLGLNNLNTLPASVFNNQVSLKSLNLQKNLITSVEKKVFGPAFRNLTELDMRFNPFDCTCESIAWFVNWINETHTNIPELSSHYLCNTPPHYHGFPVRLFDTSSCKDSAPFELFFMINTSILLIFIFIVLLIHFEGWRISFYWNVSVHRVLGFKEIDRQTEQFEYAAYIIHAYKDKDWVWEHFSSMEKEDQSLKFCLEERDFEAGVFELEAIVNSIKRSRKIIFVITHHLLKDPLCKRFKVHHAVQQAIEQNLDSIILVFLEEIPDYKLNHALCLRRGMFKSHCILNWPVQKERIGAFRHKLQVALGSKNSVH

Assays:
[1] = biological target: recombinant human TLR3 extracellular domain (R&D Systems) (human) (UniProt O15455); assay: SPR on rhTLR3 chip, neutral pH 7.2
[2] = biological target: recombinant human TLR3 extracellular domain (R&D Systems) (human) (UniProt O15455); assay: SPR, pH 5.6, human TLR3 chip previously incubated with polyAU
[3] = biological target: recombinant human TLR3 extracellular domain (R&D Systems) (human) (UniProt O15455); assay: SPR, human TLR3 chip previously incubated with polyAU (FIG. 10A legend)
[4] = biological target: recombinant human TLR3 extracellular domain (R&D Systems) (human) (UniProt O15455); assay: SPR (Biacore T100, 25 C): recombinant human TLR3 immobilised on a CM5 chip, antibody 10 µg/ml injected for 2 min in HBS-EP+ (neutral pH)
[5] = biological target: recombinant human TLR3 extracellular domain (R&D Systems) (human) (UniProt O15455); assay: SPR binding analysis on rhTLR3 chip, neutral pH, antibody 10 µg/ml
[6] = biological target: recombinant human TLR3 extracellular domain (R&D Systems) (human) (UniProt O15455); assay: SPR, pH 5.6, rhTLR3 chip first saturated with polyAU
[7] = biological target: recombinant human TLR3 extracellular domain (R&D Systems) (human) (UniProt O15455); assay: SPR (Biacore T100) at pH 5.6 (10 mM sodium acetate, 150 mM NaCl, 0.05% P20): rhTLR3 chip, polyAU 100 µg/ml or buffer first, then antibody 50 µg/ml for 2 min
[8] = biological target: recombinant human TLR3 extracellular domain (R&D Systems) (human) (UniProt O15455); assay: SPR, TLR3 chip with or without previous incubation with polyAU (FIG. 9 legend)
[9] = biological target: recombinant human TLR3 extracellular domain (R&D Systems) (human) (UniProt O15455); assay: SPR competition (Biacore T100) in acidic buffer pH 5.6: rhTLR3 chip saturated with the first antibody (50 µg/ml) or given buffer, then second antibody 50 µg/ml for 2 min
[10] = biological target: recombinant human TLR3 extracellular domain (R&D Systems) (human) (UniProt O15455); assay: SPR (Biacore): rhTLR3 chip, 34A3 injected after buffer or after saturation of the chip with 31C3
[11] = biological target: recombinant human TLR3 extracellular domain (R&D Systems) (human) (UniProt O15455); assay: ELISA, hybridoma supernatant on His-tagged recombinant TLR3 coated on Ni-NTA plates
[12] = biological target: recombinant human TLR3 extracellular domain (R&D Systems) (human) (UniProt O15455); assay: SPR competition (Biacore T100) in acidic buffer pH 5.6: rhTLR3 chip saturated with 31C3 (50 µg/ml) or not, then test antibody 50 µg/ml for 2 min

Measured: binding

B1: antibody 29H3 (antibody, V domains shown)
VH: DVQLQESGPDLVKPSQSLSLTCTVTGYSITSGYSWHWIRQFLGNKLEWMGYIHYSGITNYNPSLRSRISFTRDTSKNQFFLQLNSVTTEDTATYYCARDGYYGMDYWGQGTSVTVS
VL: DIVMTQSQKFMSTSVGDRVSITCKASQNVRTSVAWYQQKPGQSPKALIYLASNRHTGVPDRFTGSGSGTDFTLTVSNIQSEDLADYFCLQHWNYPYTFGGGTKLEIK
notes: also called 29H3.7; CNCM I-4187
not listed: [10] | [11] | [12]
binds: all other assays above

B2: antibody 34A3 (antibody, V domains shown)
VH: EIQLQQSGPELVKPGASVKVSCKASGYVFTTYSIYWVKQSHGKSLEWIGYIDPYNGDTSYNQKFKGKATLTVDKSSSTAYMHLNSLTSEDSTVYYCAREGNYYGYFDYWGQGTTLTVS
VL: QIVLTQSPALMSASPGEKVTMTCSASSSVSYMFWYQQKPRSSPKPWIYLTSNLASGVPARFSGSGSGTSYSLTISSMEAEDAATYYCQQWTGNPPTFGGGTKLEIK
notes: Mouse hybridoma antibody (Balb/c, immunization series #2); also called 34A3.5; printed 34A4, 32A4 and 34A2 in some places
binds: [1] | [6] | [7] | [10] | [8] | [11]

B3: antibody 28F11 (antibody, V domains shown)
VH: EVQLQQSGPELVKPGASVKISCKASGYSFTGYYIHWVKQSHVKSLEWIGRINPYYGATSYNQNFKDKANLTVDKSSSTAYMELHSLTSDDSAVYYCARSTKLGYLDYWGQGTTLTVS
VL: DIQMTQSPASLSASVGETVTITCRASENIYSNLAWYQQKQGKSPQLLIYNAKTLAEGVPSRFSGSGSGTQYFLKINSLQPEDFGSYYCQHHYGTPFTFGGGTKLEIK
binds: [1] | [12] | [2] | [3] | [6] | [7] | [8]

B4: antibody 23C8 (antibody, V domains shown)
VH: EVQLQQSGPELVKPGASVKISCKASGYSFTGYFMHWVKQSHVKSLEWIGRINPYNGATSYNQNFKDKASLTVDKSSSTSYMELHSLTSEDSAVYYCVRDDGGNYPFDYWGQGTTLTVS
VL: B3 VL with N32Y, I48V, N50Y, S67T, Y71F, F72S, F96Y
notes: also called 23C8.4
binds: [1] | [12] | [2] | [3] | [6] | [7] | [8]
